Entries after “also recorded” stand apart in the source; their conditions may differ. Where two headings read alike, the source gives them in different places.
Experiments:
[1] = cited from earlier work
[2] = Laser characteristics of pyrromethene-BF2 complexes under flashlamp excitation (Table IV); settings: DMA/MeOH
[3] = Use as laser dye: lasing threshold and wavelength range in 10 mm flashlamp D-1100 dye laser (Phas-R Model D-1100); settings: 60 mg in 250 ml of methanol
[4] = Laser activity (λlas, relative efficiency RE); settings: for RE (relative efficiency): 100 assigned to R-6G
[5] = 2 × 10^-4 M in ethanol, Ref [2] / Shah et al. 1990

In the case of `CCN1C(=CC=Cc2oc3ccccc3[n+]2CC)Oc2ccccc21` [Compound 3a, reference compound], the λlas ([1]; literature or known dye) is given as 541 nm.

In the case of `CN1C(=CC=CC=CC=Cc2oc3ccccc3[n+]2C)Oc2ccccc21` [Compound 3b, reference compound], the λlas ([1]; literature or known dye) is listed as 800 nm.

For `CC1=CC(C)=[N+]2C1=C(C)c1c(C)cc(C)n1[B-]2(F)F` [Compound 7a, 4,4-difluoro-1,3,5,7,8-pentamethyl-4-bora-3a,4a-diaza-s-indacene], the λlas [1, 5] is listed as 542 nm, the Vth [2] is listed as 8-10 kV and the “Eo (V = 18 kV)” value ([2]; V = 18 kV) is listed as 85 mJ. For the same compound, the λL ([2]; conc. × 10^4 M: I 1.5, II 2, III 2, Rhodamine 590 0.5) was 542 nm, the lasing threshold [3] was 9.5 kV and the lasing wavelength range [3] was 532-565 nm.

For `CCOC(=O)C1=C(C)C2=C(C#N)c3c(C)c(C(=O)OCC)c(C)n3[B-](F)(F)[N+]2=C1C` [Compound 7aa, diethyl 1,3,5,7-tetramethyl-8-cyanopyrromethene-2,6-dicarboxylate-BF2 complex], the λlas ([4]; 2 × 10^-4 M in p-dioxan) was 617 nm, the “RE (relative efficiency)” value [4] was 55 and the “power efficiency relative to rhodamine-B” value ([4]; λlas 617 nm vs 611 nm) was “nearly twice”.

For `CC1=C(C)C(C)=[N+]2C1=C(C)c1c(C)c(C)c(C)n1[B-]2(F)F` [Compound 7b], the λlas [1, 5] is listed as 573 nm and the “RE (relative efficiency)” value ([1]; 100 assigned to R-6G, Ref [2]) is listed as 65.

Compound `CCC1=C(C)C2=C(C#N)c3c(C)c(CC)c(C)n3[B-](F)(F)[N+]2=C1C` [Compound 7bb, 1,3,5,7-Tetramethyl-2,6-diethyl-8-cyanopyrromethene-BF2 complex] has a λlas ([4]; 2 × 10^-4 M in p-dioxan, Phase-R DL-1100 dye laser with DL-5Y coaxial flashlamp) of 670 nm.

In the case of `CCCC1=C(C)C2=C(C)c3c(C)c(CCC)c(C)n3[B-](F)(F)[N+]2=C1C` [Compound 7d, 2,6-Di-n-propyl-1,3,5,7,8-pentamethylpyrromethene-BF2 complex], the λlas ([4]; 2 × 10^-4 M in ethanol) is reported as 578 nm and the “RE (relative efficiency)” value [4] is reported as 85.

`CCCCC1=C(C)C2=C(C)c3c(C)c(CCCC)c(C)n3[B-](F)(F)[N+]2=C1C` [Compound 7e] showed a λlas ([4]; 2 × 10^-4 M in ethanol) of 580 nm.

With `CC1=C(C(C)C)C(C)=[N+]2C1=C(C)c1c(C)c(C(C)C)c(C)n1[B-]2(F)F` [Compound 7f] the λlas ([4]; 2 × 10^-4 M in ethanol) was 577 nm and the “RE (relative efficiency)” value [4] was 45.

With `CC1=C(C(C)(C)C)C(C)=[N+]2C1=C(C)c1c(C)c(C(C)(C)C)c(C)n1[B-]2(F)F` [Compound 7g] the λlas ([4]; 2 × 10^-4 M in ethanol) was 597 nm and the “RE (relative efficiency)” value [4] was 50.

Compound `CC1=C2C=C3CCCCC3=[N+]2[B-](F)(F)n2c1cc1c2CCCC1` [Compound 7h, 2,3,6,7-bistetramethylene-8-methylpyrromethene-BF2 complex] has a λlas ([4]; 2 × 10^-4 M in ethanol) of 589 nm.

Compound `CC1=C2CCCCC2=[N+]2C1=C(C)c1c(C)c3c(n1[B-]2(F)F)CCCC3` [Compound 7i] has a λlas ([4]; 2 × 10^-4 M in ethanol) of 582 nm.

With `CC1=C2C3=C(CCC3)C(C)=[N+]2[B-](F)(F)n2c(C)c3c(c21)CCC3` [Compound 7j, 1,2,6,7-bistrimethylene-3,5,8-trimethylpyrromethene-BF2 complex] the λlas ([4]; 2 × 10^-4 M in ethanol) was 560 nm and the “RE (relative efficiency)” value [4] was 20.

In the case of `CCC1=C(CC)C(C)=[N+]2C1=C(C)c1c(CC)c(CC)c(C)n1[B-]2(F)F` [Compound 7k, 1,2,6,7-tetraethyl-3,5,8-trimethylpyrromethene BF2 complex], the λlas ([4]; 2 × 10^-4 M in ethanol) is reported as 582 nm and the “RE (relative efficiency)” value [4] is reported as 75.

For `CC1=C(c2ccccc2)C(C)=[N+]2C1=C(C)c1c(C)c(-c3ccccc3)c(C)n1[B-]2(F)F` [Compound 7l], the “laser activity” value [4] was “Low lasing activity”, the λlas ([4]; 2 × 10^-4 M in ethanol) was 582 nm and the “RE (relative efficiency)” value [4] was 20.

In the case of `CC(=O)NC1=C(C)C2=C(C)c3c(C)c(NC(C)=O)c(C)n3[B-](F)(F)[N+]2=C1C` [Compound 7m], the λlas ([4]; 2 × 10^-4 M in trifluoroethanol) is reported as 566 nm and the “RE (relative efficiency)” value [4] is reported as 5.

With `COC1=C(C)C(C)=[N+]2C1=C(C)c1c(OC)c(C)c(C)n1[B-]2(F)F` [Compound 7n, 1,7-dimethoxy-2,3,5,6,8-pentamethylpyrromethene-BF2 complex] the λlas ([4]; 2 × 10^-4 M in ethanol) was 540 nm and the “RE (relative efficiency)” value [4] was 30.

With `CCC1=C(C)C2=C(CC)c3c(C)c(CC)c(C)n3[B-](F)(F)[N+]2=C1C` [Compound 7o, 1,3,5,7-tetramethyl-2,6,8-triethylpyrromethene-BF2 complex] the λlas ([4]; 2 × 10^-4 M in ethanol) was 571 nm and the “RE (relative efficiency)” value [4] was 75.

With `CCC1=C(C)C2=C(C(C)C)c3c(C)c(CC)c(C)n3[B-](F)(F)[N+]2=C1C` [Compound 7p, 1,3,5,7-tetramethyl-2,6-diethyl-8-isopropylpyrromethene-BF2 complex] the “laser activity” value [4] was “loss of laser activity; also recorded: absence of fluorescence and laser activity”.

From patent US5446157A, “Boron difluoride compounds useful in photodynamic therapy and production of laser light” (priority 1993, dated 1995)
